Laboratory results reported in publication PMC8290069.
No constants are given. Whether binding was seen depends on the method and setting. In cells and extracts the contact can be indirect. Some results given as binding are weak or reduced against the parent protein; the word gives no strength.

The chains behind the UniProt entries cited, without tags or fusion partners.
UniProt E9Q2Z1: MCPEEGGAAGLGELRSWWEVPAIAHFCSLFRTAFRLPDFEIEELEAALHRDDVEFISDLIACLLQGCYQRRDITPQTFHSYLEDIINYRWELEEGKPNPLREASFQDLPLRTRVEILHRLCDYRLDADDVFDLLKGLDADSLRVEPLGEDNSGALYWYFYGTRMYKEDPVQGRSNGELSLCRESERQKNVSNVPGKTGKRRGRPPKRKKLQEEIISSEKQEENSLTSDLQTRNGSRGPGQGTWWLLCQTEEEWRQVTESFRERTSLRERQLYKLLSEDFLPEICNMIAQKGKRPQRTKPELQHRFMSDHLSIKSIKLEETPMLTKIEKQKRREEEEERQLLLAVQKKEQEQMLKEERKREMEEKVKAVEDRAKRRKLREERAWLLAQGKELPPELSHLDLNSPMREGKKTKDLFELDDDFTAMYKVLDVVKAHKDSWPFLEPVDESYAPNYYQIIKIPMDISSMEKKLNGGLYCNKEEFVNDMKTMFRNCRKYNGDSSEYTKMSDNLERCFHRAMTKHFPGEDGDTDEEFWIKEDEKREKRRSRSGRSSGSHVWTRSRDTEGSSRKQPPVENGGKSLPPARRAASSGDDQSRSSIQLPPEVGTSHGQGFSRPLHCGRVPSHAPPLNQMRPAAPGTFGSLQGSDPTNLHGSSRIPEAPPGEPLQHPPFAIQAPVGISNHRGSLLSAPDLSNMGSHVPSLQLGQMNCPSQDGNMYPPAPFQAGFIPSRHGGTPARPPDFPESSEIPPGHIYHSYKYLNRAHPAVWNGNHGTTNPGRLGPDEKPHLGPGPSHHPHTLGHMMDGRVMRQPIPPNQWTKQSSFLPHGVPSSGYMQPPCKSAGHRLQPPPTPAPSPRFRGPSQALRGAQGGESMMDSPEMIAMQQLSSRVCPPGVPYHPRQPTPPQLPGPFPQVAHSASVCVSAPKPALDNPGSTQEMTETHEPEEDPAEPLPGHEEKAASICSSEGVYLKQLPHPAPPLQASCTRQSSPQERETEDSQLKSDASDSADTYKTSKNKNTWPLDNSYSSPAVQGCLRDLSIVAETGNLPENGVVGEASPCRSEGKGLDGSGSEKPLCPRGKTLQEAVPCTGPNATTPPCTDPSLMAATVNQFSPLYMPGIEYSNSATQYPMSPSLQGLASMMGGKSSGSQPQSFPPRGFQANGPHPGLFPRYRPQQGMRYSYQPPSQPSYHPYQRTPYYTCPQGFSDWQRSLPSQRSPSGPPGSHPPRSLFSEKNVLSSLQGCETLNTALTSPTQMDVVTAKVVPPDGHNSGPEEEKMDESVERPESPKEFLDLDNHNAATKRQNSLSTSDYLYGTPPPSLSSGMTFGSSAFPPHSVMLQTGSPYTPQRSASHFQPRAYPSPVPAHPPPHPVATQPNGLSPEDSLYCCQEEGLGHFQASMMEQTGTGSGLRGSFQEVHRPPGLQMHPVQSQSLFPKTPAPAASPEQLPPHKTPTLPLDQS
UniProt Q6PGB8: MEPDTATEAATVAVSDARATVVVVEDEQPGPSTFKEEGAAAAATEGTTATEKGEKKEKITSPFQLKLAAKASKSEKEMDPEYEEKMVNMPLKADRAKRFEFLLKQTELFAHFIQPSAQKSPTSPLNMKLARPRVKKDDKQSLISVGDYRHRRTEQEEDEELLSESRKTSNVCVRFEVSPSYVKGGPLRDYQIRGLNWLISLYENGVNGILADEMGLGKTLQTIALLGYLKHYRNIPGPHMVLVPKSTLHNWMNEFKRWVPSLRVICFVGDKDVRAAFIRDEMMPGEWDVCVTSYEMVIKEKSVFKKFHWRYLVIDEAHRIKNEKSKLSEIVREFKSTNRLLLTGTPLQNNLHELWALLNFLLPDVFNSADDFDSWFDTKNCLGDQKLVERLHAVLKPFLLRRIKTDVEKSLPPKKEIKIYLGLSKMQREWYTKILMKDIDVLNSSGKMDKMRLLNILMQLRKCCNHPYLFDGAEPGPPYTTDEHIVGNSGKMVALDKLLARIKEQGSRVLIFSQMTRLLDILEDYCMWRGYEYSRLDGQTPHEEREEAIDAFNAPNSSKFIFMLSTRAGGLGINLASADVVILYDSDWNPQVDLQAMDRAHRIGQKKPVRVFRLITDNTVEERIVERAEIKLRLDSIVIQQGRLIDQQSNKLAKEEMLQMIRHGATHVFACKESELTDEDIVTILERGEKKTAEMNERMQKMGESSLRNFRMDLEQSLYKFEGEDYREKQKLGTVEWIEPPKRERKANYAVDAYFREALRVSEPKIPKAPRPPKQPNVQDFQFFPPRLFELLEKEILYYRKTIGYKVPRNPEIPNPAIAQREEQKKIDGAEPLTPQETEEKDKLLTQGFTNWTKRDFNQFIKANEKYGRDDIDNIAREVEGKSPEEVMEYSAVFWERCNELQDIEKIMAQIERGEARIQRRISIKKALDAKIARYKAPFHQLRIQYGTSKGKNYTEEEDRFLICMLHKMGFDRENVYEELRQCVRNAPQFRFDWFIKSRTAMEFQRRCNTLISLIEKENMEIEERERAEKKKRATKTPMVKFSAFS

Biological target: CECR2 (mouse (endogenous in cerebellum)) (UniProt E9Q2Z1)
Test: co-IP; 500 ug P21 cerebellar lysate of WT or Ex6DEL mice, 1 ug anti-Snf2l or anti-Cecr2 antibody (control rabbit IgG) overnight at 4°C, protein A/G magnetic beads, 5 washes in 0.3% triton-X in PBS, elution with 0.1 M glycine pH 2.5, immunoblot

- binding: binds
Substance: Snf2l protein (wild type, encoded by Smarca1) (from UniProt Q6PGB8 1-1046)
